In patent US5364854A, “Derivatives of substituted imidazo benzoxazin-1-one and process for their preparation” (Farmitalia Carlo Erba S.r.l., priority 1992, dated 1994):

System: 5-HT3 receptor
Assay: Inhibition of the binding of ^3 H-GR65630 to 5-HT3 sites in rat entorhinal cortex
Conditions: ^3 H-GR 65630, rat entorhinal cortex, non-linear fitting
From the text: The following Table II reports the data obtained in this in vitro test for a representative group of compounds of the invention in comparison with the known reference compounds MDL 72222 and Metoclopramide.
5-HT3 binding affinity ^(a) for rat entorhinal cortex
^(a) [^3 HGR 65630 labelled 5HT3 sites.
The tested compounds were able to interact with 5-HT3 -serotonin receptors labelled in the entorhinal cortex of the rat brain with ^3 H-GR 65630.

SMILES	displacement fitting model
Cl.O=C1N(C2CN3CCC2CC3)CC2COc3ccc(Cl)cc3N12 (stereo not drawn) [FCE 26781, 2,3,3a,4-tetrahydro-2-(1-azabicyclo [2.2.2]oct-3-yl)-8-chloro-1H-imidazo[5,1-c][1,4]benzoxazin-1-one hydrochloride]	two site non-linear fitting model
CN1C2CCC1CC(N1CC3COc4ccccc4N3C1=O)C2 (stereo not drawn) [FCE 26878, (endo)-2,3,3a,4-tetrahydro-2-(8-methyl-8-azabicyclo[3.2.1]oct-3-yl)-1H-imidazo[5,1-c][1,4]benzoxazin-1-one, hydrochloride]	one site non-linear fitting
CN1C2CCC1CC(N1CC3COc4ccc(Cl)cc4N3C1=O)C2 (stereo not drawn) [FCE 26783, (endo)-2,3,3a,4-tetrahydro-8-chloro-2-(8-methyl-8-azabicyclo [3.2.1]oct-3-yl)-1H-imidazo[5,1-c][1,4]benzoxazin-1-one hydrochloride]	one site non-linear fitting
CN1C2CCC1CC(OC(=O)c1cc(Cl)cc(Cl)c1)C2 (stereo not drawn) [MDL 72222, reference compound]	one site non-linear fitting
CN1C2CCCC1CC(N1CC3COc4ccccc4N3C1=O)C2 (stereo not drawn) [FCE 26963, (endo)-2,3,3a,4-tetrahydro-2-(9-methyl-9-azabicyclo[3.3.1]non-3-yl)-1H-imidazo[5,1-c][1,4]benzoxazin-1-one hydrochloride]	two site non-linear fitting model
CCN(CC)CCNC(=O)c1cc(Cl)c(N)cc1OC [Metoclopramide, reference compound]	one site non-linear fitting

Counter-ions that a name gives are not always drawn. Some entries repeat one wording, which the source may state once for all of them.
